Experimental data: PMC8748879

Protein sequences, listed by entry. Tags and fused reporters are not part of them.
UniProt P04406: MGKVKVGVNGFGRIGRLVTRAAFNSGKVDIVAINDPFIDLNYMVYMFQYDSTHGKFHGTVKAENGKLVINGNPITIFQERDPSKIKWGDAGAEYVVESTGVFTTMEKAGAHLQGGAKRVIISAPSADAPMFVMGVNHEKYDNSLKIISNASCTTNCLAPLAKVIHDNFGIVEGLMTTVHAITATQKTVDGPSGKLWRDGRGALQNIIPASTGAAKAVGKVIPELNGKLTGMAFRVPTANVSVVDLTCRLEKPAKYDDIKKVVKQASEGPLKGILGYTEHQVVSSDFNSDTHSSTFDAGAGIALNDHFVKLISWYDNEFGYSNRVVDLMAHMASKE

Biological target: T1, catalytically inactive RNase H fused to Turbo biotin ligase (RHΔ-Turbo-F) (UniProt P0A7Y4)
T1 sequence: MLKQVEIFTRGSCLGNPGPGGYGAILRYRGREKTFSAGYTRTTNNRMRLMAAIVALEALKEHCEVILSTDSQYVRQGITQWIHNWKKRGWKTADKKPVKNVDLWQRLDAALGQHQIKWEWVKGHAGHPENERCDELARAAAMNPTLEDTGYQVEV
Experiment: proximity labelling; TurboID in stable HEK293 lines, biotin pulse 10 min, high salt nuclear extract, streptavidin beads with denaturing washes, eluates read by western blot

binding: no binding
Substance: GAPDH (from UniProt P04406 1-335)

Results are given in words; binding and its absence hold for the method and conditions named. Binding seen in cells or lysates may run through a third protein. A yes stands for co-enrichment or nearness to the bait. Other partners may have been found. A no says only that the protein was not detected with the bait. Tags and fused reporters may be left off the sequences shown.
